For 42 sequences, binding signal results are on record in publication PMC7819943, “Rice protein-binding microarrays: a tool to detect cis-acting elements near promoter regions in rice”.

Protein sequences, listed by entry. Tags and fused reporters are not part of them.
UniProt Q0JBA9, entry or part of it: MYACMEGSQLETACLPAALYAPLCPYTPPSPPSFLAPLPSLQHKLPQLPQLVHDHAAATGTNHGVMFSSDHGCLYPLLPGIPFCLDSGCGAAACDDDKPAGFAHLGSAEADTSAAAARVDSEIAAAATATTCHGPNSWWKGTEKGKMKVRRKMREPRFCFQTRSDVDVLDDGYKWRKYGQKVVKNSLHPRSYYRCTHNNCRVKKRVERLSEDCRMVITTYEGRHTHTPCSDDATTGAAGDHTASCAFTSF

This is one part of the list.

This experiment concerns the target OsWRKY34 (Oryza sativa, UniProt Q0JBA9 1-250). Briefly: protein-binding microarray (RPBM); PBS, 2% BSA, 51.3 ng/ul salmon testes DNA, 50 uM zinc acetate, 200 nM TF, 25 C, 1 h; high values mean tight binding. The following applies: protein: recombinant; tags: N-terminal polyhistidine and DsRed monomer fusion (pET32a); label: CyDye5-dUTP incorporated in the synthesized complementary strand; 3' TTTTT single-stranded linker to array surface; dsDNA, one strand shown. An outline of the steps: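 Binding signal here means per-feature fluorescence intensity in arbitrary units. The values were read on an Axon 4000B scanner after a custom Agilent array, double-stranded by primer extension with Cy5-dUTP, was incubated with 200 nM protein at 25 °C for 1 h in PBS with 2% BSA, salmon testes DNA and 50 µM zinc acetate, then washed. The proteins were transcription factors with an N-terminal polyhistidine tag and DsRed, expressed in E. coli BL21-CodonPlus and purified on Ni–NTA.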
On to “TTTACACGTAATCTGTGTAATTGGTTTTTTCGCCTACATTCGGAGTCACCTAGTGCAG”, for which the binding signal was 10200 fluorescence intensity (a.u.).
The result for “GATGTTTCCGGCTGGGGTTCTTGAGGCGTTTTGAAGAGGACGGAGTCACCTAGTGCAG” reads 10200 fluorescence intensity (a.u.).
Consider “CACCATTCGAAACACCCTCTTTTCTATTCTCGCTTAGCTACGGAGTCACCTAGTGCAG”, for which the binding signal is 8230 fluorescence intensity (a.u.).
The result for “GGTTCGCTCTCTCCGTCTCTCTGCTATGCCCCTCTCTTTCCGGAGTCACCTAGTGCAG” reads 11500 fluorescence intensity (a.u.).
The result for “TACCGTAAAGTTCTCTCTCTCTTTTTATATTGCATGACCACGGAGTCACCTAGTGCAG” reads 9710 fluorescence intensity (a.u.).
With “CATTTTCTCGTAAGTGTACCTTTCATTTTTTTTATGCTCACGGAGTCACCTAGTGCAG”, the binding signal was 8610 fluorescence intensity (a.u.).
The result for “AAGGATATAGTTTGCATTGGTTTTGATAGTTGGAGGAGTCCGGAGTCACCTAGTGCAG” reads 9850 fluorescence intensity (a.u.); that for “TATATGCCATTGATCCAAATTTGCACACCCTCTCATGCCACGGAGTCACCTAGTGCAG”, 11800 fluorescence intensity (a.u.); that for “GCAAACGATATCCATCGCACTACTCGTCTCGTCTACTCCTCGGAGTCACCTAGTGCAG”, 8200 fluorescence intensity (a.u.).
The result for “TTGTACAAGTATCAGCTGAGCTCCTCGTCCTCGTCTTCTTCGGAGTCACCTAGTGCAG” reads 8510 fluorescence intensity (a.u.); that for “TCAGTGTGTGTGTGTCGTGCTGCTGCATGTGTGCGTCGTACGGAGTCACCTAGTGCAG”, 9890 fluorescence intensity (a.u.).
The result for “TTCCATACCATATGTACCTTCCAACATTTTGTTCTATCCACGGAGTCACCTAGTGCAG” reads 10600 fluorescence intensity (a.u.); that for “CCTCTCTCTGCTCTCGCCTTCTTACCATCTCACATTCCTTCGGAGTCACCTAGTGCAG”, 10700 fluorescence intensity (a.u.); that for “CGTGCACATCCTCGTCAGCTTCGTCGTCCACCACCGTCGACGGAGTCACCTAGTGCAG”, 12000 fluorescence intensity (a.u.).
With “ATGCAGCCTCGACGCTTACTGTCACCACGATCGCATTCACCGGAGTCACCTAGTGCAG”, the binding signal was 11200 fluorescence intensity (a.u.).
The result for “CGACCGACCCTCGCCCGCCCACCGCCGTCACTCTCGTCTGCGGAGTCACCTAGTGCAG” reads 10300 fluorescence intensity (a.u.); that for “GTGATGCTCTTAATCCTAGGCGCTGTTTAGTTTGTTCGACCGGAGTCACCTAGTGCAG”, 15600 fluorescence intensity (a.u.).
The result for “TACTTATCTACTGTTTTATCCCTTTTTGTTTCTGTTTCTTCGGAGTCACCTAGTGCAG” reads 13400 fluorescence intensity (a.u.); that for “CTCAACTTCTACTATCTTATTTTCCGCATGTATGTTTCTCCGGAGTCACCTAGTGCAG”, 9380 fluorescence intensity (a.u.); that for “CACGTTAGATTATCCCAACTGAATCCCTGTTCCACCTTATCGGAGTCACCTAGTGCAG”, 10500 fluorescence intensity (a.u.).
The result for “CGCTTATTAGCTTCTTCTTTTCATTCCGATTTGGTGGGGTCGGAGTCACCTAGTGCAG” reads 9670 fluorescence intensity (a.u.); that for “TGGATGGTACTCCCTCCTCTAAATGTTTGACGCCGTTGACCGGAGTCACCTAGTGCAG”, 14400 fluorescence intensity (a.u.).
On to “CCATCCTTGATGCGGCGTCGATCTACACGCTTATCGGTAGCGGAGTCACCTAGTGCAG”, for which the binding signal is 8510 fluorescence intensity (a.u.).
The result for “TATACAATTGCCTTACCTGTCCCCACCTGTCACATGCCTCCGGAGTCACCTAGTGCAG” reads 9460 fluorescence intensity (a.u.); that for “TAAATCCCCAATACTCCGTATCATAGATCTTCACCTCTCACGGAGTCACCTAGTGCAG”, 9840 fluorescence intensity (a.u.).
The result for “GGTGGGATGGTTTTTGTGTGTTTGCAAACCTGCAAGCACTCGGAGTCACCTAGTGCAG” reads 12200 fluorescence intensity (a.u.); that for “AGTTTTACTCATTCATCATTCATCATGTCACACATCCAACCGGAGTCACCTAGTGCAG”, 8500 fluorescence intensity (a.u.).
Consider “CTGGTTGCAGCTACCACCGTTCAACCATGCAATCACACGTCGGAGTCACCTAGTGCAG”, for which the binding signal is 9160 fluorescence intensity (a.u.).
The result for “CGTTTTATCCTCAAAAGCCGAGCTATCCTTATCCCAAAACCGGAGTCACCTAGTGCAG” reads 8480 fluorescence intensity (a.u.).
The result for “TCCTAATTTCACCATTATCTTGAAGCTCCACTTGCTACCACGGAGTCACCTAGTGCAG” reads 8040 fluorescence intensity (a.u.).
The result for “CAGTTTTGTGGATCGGATTGTGTTTGTGATCTTCCACCAACGGAGTCACCTAGTGCAG” reads 8480 fluorescence intensity (a.u.); that for “ACACCTCCGCACCGGACGTCCGGACCCCATACACCTCCGCCGGAGTCACCTAGTGCAG”, 10500 fluorescence intensity (a.u.).
For “TTCCTCCTGCGGTCCCGCCCAACCCAAACCTCTCACCATGCGGAGTCACCTAGTGCAG”, the binding signal was 8060 fluorescence intensity (a.u.).
As for “GCCGCATCCATCGCGAAGGCTACTCTACCCATCCCATTTTCGGAGTCACCTAGTGCAG”, the binding signal was 9260 fluorescence intensity (a.u.).
The result for “GGGTGTGTTTTTTTTCCAAAGGAATGGAACCATTCCATTCCGGAGTCACCTAGTGCAG” reads 9230 fluorescence intensity (a.u.).
On to “ATTCTTCTCCATGCTTTAGCATCCAAGCTCCAGTTTCACCCGGAGTCACCTAGTGCAG”, for which the binding signal was 8530 fluorescence intensity (a.u.).
As to “TCTTCATATCTTCTTTCCAACTACCACACCACACACGAAACGGAGTCACCTAGTGCAG”, the binding signal was 8300 fluorescence intensity (a.u.).
The result for “CATGTCGACGTTTGGATGGGTTTTAGATTTGTGTCATTTTCGGAGTCACCTAGTGCAG” reads 10800 fluorescence intensity (a.u.).
With “TTCGAAATGTTTGACGCCGTTGACTTTTTAGCATATGTTTCGGAGTCACCTAGTGCAG”, the binding signal is 13200 fluorescence intensity (a.u.).
The result for “CCATTAGCAAACCTCGCCGATTCTCTCTCTCGATCGAACACGGAGTCACCTAGTGCAG” reads 9130 fluorescence intensity (a.u.); that for “GTTGTTTGTTTGAGACTCTGTTCCTTTTGGCTTGGTTTTCCGGAGTCACCTAGTGCAG”, 12700 fluorescence intensity (a.u.).
“TCAATCCACTACCAGTCTCTGACCGACGTGTTTTGTGCATCGGAGTCACCTAGTGCAG”: the binding signal was 8730 fluorescence intensity (a.u.).
